Laboratory results from article PMC3614988.
These are yes or no findings as the source states them, for the method shown. In cells and extracts the contact can be indirect.

Molecular target: T1, Rai14 (retinoic acid induced protein 14) (rat (endogenous in testis)) (UniProt Q5U312)
T1 sequence: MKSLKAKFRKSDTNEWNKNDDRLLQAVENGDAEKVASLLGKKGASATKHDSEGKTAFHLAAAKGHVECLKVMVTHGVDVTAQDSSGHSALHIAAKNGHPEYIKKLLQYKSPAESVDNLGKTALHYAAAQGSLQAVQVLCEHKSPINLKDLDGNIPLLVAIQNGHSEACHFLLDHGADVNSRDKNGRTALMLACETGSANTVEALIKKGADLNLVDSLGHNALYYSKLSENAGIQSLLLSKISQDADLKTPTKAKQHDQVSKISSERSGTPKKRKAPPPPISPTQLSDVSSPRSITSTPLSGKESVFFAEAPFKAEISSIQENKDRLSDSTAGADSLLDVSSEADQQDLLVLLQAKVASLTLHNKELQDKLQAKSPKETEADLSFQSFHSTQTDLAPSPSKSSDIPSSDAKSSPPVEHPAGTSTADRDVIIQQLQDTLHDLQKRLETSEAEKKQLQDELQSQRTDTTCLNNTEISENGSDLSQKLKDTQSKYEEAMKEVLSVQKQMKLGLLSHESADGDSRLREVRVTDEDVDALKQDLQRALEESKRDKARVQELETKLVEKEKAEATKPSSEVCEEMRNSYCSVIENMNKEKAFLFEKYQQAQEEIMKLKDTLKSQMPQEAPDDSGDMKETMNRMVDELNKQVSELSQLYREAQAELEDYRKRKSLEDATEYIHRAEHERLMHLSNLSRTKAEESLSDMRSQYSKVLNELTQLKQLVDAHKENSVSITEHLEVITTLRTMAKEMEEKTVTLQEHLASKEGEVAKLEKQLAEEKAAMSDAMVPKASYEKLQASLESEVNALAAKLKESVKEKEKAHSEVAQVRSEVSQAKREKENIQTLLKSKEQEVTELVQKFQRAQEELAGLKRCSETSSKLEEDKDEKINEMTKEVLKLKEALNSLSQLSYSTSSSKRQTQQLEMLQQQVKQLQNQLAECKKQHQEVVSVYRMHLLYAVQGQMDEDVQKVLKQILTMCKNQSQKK
Test: co-IP; anti-Rai14 IgG (2 µg) as precipitating antibody, immunoblot for the partner; rat testis lysate (for Figure 1D the lysate is not named in the legend); untreated rats

binding: no binding
Substance: drebrin E (rat (endogenous in testis))
